Measurements: patent US20100143313A1, “HOMOGENEOUS DIFFERENTIATION OF HEPATOCYTE-LIKE CELLS FROM EMBRYONIC STEM CELLS” (THE GENERAL HOSPITAL CORPORATION, priority 2008, published 2010)
Where “and” joins values, the source holds several entries; their conditions need not be identical. Equal entries are not always repeated. The name of at least one read-out is uncertain.

Test system: albumin promoter-driven GFP expression in ES-derived endoderm (ESDE) cells
Experiment: Screening of agonists for albumin promoter-driven GFP expression in ES-derived endoderm (ESDE) cells, flow cytometry
Type: cell-based, murine
Conditions: agonist d14-d20, 2% DMSO, 1 μM Azacytidine, 1 μM Retinoic Acid, 100 μM SNAP, 1 μM A23187, 1 nM vasopressin, 200 μM IBMX, 2 mM phenobarbital, 10 mM nicotinamide, 0.1 μM PGE2; for Cell fraction of day 30 ES-derived cells positive for albumin promoter-driven GFP expression, High Glucose: high glucose DMEM; for Cell fraction of day 30 ES-derived cells positive for albumin promoter-driven GFP expression, Low Glucose: low glucose DMEM
Method: A transgenic ES cell for enhanced green fluorescence protein (GFP) driven by the albumin promoter was used or the purpose of quickly screening different stimulants for hepatic differentiation. After a total of 30 days of differentiation, the various agonists were evaluated for their ability to induce ES-derived endoderm (ESDE) to express the albumin gene. When the ESDE cells were cultured in high glucose conditions, none of the agonists tested were able to increase cell population fraction positive for GFP expression over 10% (Table 1):
Additionally, for the purpose of quickly screening different stimulants for hepatic differentiation, a transgenic ES cell for enhanced green fluorescence protein (GFP) driven by the albumin promoter was used for these preliminary studies. The transgenic murine J1 cell line was obtained from the National Cancer Center Research Institute (Tokyo, Japan). The murine ES cell line D3 (ATCC, Manassas, Va.) was also used to assess the differentiation of ES cells into endoderm and hepatic lineage cells. Undifferentiated ES cells were cultured in Knockout DMEM (Gibco), supplemented with 15% replacement serum, 4 mM L-glutamine (Gibco), 100 U/mL penicillin (Gibco), 100 U/ml streptomycin (Gibco), 10 μg/mL gentamycin (Gibco), 1000 units/mL Leukemia Inhibitory Factor (LIF; Chemicon International, Temecula, Calif.), and 0.1 mM 2-mercaptoethanol (Gibco) on 0.1% gelatin-coated T-75 tissue culture flasks. Culture medium was replaced every day and cells were passaged at dilutions ranging from 1:5 to 1:20 at least once a week. Cells were cultured at 37° C. and in a 5% CO2 incubator.
To isolate the ES-derived cells in co-culture, the ES cells cultured on top of collagen sandwiched hepatocytes were incubated with dispase (1 mg/mL) (Gibco) for 30-60 min at 37° C. After incubation, the ES-derived cells were detached by gentle pipetting. The collagen-sandwiched hepatocytes remained at the bottom of the dish, thus allowing separation of the ES-derived cells from the primary hepatocytes. The isolated ES-derived cells were replated (day 10) on collagen gel coated 35-mm dishes at a density of 400,000 ES-derived cells per dish and cultured in high glucose DMEM supplemented with 10% FBS, 100 ng/mL oncostatin-M (Sigma), 0.2 μM dexamethasone (Sigma), and insulin/transferrin/selenious acid (5 μg/mL, 5 μg/mL, 5 ng/mL, respectively) (BD Biosciences, San Jose, Calif.). The replated cells were allowed to recover for four days before induction of hepatocyte differentiation.
At day fourteen of culture, the ES cells were stimulated with the chemical agonists listed on Table 1 (above) in high glucose or low glucose DMEM supplemented with 10% FBS and 0.2 μM dexamethasone. The media with chemical agonists were exchanged every other day until day twenty. At day twenty of culture, the ES cells were cultured without the chemical agonists in high glucose or low glucose DMEM supplemented with 10% FBS and 0.2 μM dexamethasone. The ES cells were cultured up to day fifty with media exchange every other day.
Alternatively, Cells were detached from the collagen surface using 10 U/ml collagenase and 1 U/ml dispase in serum-free DMEM for 30 minutes. Cells were then fixed in 4% paraformaldehyde and stored at 4° C. for later analysis. Collected cells were analyzed by flow cytometry (Epics Altra; Becton Dickinson). FACS data was analyzed using CellQuest software. Day-ten ES cells were used as negative controls.

SMILES	Cell fraction of day 30 ES-derived cells positive for albumin promoter-driven GFP expression, High Glucose [%]	Cell fraction of day 30 ES-derived cells positive for albumin promoter-driven GFP expression, Low Glucose
CC(=O)N[C@H](C(=O)O)C(C)(C)SN=O (racemic) [SNAP, S-nitroso-N-acetylpenicillamine]	6.2	48%
CC(C)Cn1c(=O)n(C)c(=O)c2[nH]cnc21 [IBMX, 3-isobutyl-1-methylxanthine]	5.8	~44% and 43%
NC(=O)c1cccnc1 [nicotinamide]	5.6	43%
